Where two headings read alike, the source gives them in different places.
Columns and labels:
[1] = in vivo; conditions: rat, po, rats, read-out: Acute Toxicity (LD50) p.o.
Description: Acute toxicities are determined in rats and in mice and the LD50 's are calculated according to the method of Litchfield and Wilcoxon, J.Pharmacol.Exp. Therap.

[2] = in vivo; conditions: mouse, po, mice, read-out: Acute Toxicity (LD50) p.o.
Description: 138, 405 (1962), both in the rat. […] Acute toxicities are determined in rats and in mice and the LD50 's are calculated according to the method of Litchfield and Wilcoxon, J.Pharmacol.Exp. Therap. 96, 99 (1949).

COc1ccc2cc([C@H](C)C(=O)O)ccc2c1 [Naproxen] gave an LD50 [1] of 347 mg/kg and an LD50 [2] of 830 mg/kg.

Reference: patent US4327222A, “3,4-Diarylisoxazol-5-acetic acids and process for making same” (priority 1979, dated 1982)
